Our source for the binding values is article PMC12116911.

Protein sequences, listed by entry. Tags and fused reporters are not part of them.
UniProt O95747: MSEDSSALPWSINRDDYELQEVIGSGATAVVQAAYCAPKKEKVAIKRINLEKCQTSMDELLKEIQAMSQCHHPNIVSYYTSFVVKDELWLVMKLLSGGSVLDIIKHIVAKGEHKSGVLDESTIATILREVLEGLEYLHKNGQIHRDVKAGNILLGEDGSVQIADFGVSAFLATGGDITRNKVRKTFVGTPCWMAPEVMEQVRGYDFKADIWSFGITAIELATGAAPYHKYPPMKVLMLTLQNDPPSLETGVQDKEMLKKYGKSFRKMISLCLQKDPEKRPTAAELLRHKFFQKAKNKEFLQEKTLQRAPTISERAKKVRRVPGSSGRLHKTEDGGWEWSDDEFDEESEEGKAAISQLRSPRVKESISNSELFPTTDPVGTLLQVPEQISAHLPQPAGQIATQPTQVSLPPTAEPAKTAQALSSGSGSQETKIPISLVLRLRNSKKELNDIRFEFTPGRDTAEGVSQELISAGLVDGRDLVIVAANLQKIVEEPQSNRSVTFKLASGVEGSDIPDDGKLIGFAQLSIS

This test has as its target HA-tagged OXSR1 (oxidative stress responsive kinase 1) (human) (UniProt O95747). Kind of test: co-IP; HEK-293T cells transiently co-expressing HA- and V5-tagged proteins; lysis buffer 50 mM Tris-HCl pH 7.4, 150 mM NaCl, 2 mM MgCl2, 1% NP-40; anti-HA magnetic beads or anti-V5 agarose, 4 h at 4 °C; four washes; immunoblot.

These are yes or no findings as the source states them, for the method shown. In cells and extracts the contact can be indirect. Some results given as binding are weak or reduced against the parent protein; the word gives no strength. Sequences can lack the tags named with a protein.

B1: V5-tagged SLC38A2 (protein, UniProt Q96QD8 1-506)
chain: MKKAEMGRFSISPDEDSSSYSSNSDFNYSYPTKQAALKSHYADVDPENQNFLLESNLGKKKYETEFHPGTTSFGMSVFNLSNAIVGSGILGLSYAMANTGIALFIILLTFVSIFSLYSVHLLLKTANEGGSLLYEQLGYKAFGLVGKLAASGSITMQNIGAMSSYLFIVKYELPLVIQALTNIEDKTGLWYLNGNYLVLLVSLVVILPLSLFRNLGYLGYTSGLSLLCMVFFLIVVICKKFQVPCPVEAALIINETINTTLTQPTALVPALSHNVTENDSCRPHYFIFNSQTVYAVPILIFSFVCHPAVLPIYEELKDRSRRRMMNVSKISFFAMFLMYLLAALFGYLTFYEHVESELLHTYSSILGTDILLLIVRLAVLMAVTLTVPVVIFPIRSSVTHLLCASKDFSWWRHSLITVSILAFTNLLVIFVPTIRDIFGFIGASAASMLIFILPSAFYIKLVKKEPMKSVQKIGALFFLLSGVLVMTGSMALIVLDWVHNAPGGGH
As for B1, the binding entry is reported as “binds”.
